Data from publication PMC4161973.
Results are given in words; binding and its absence hold for the method and conditions named. Sequences can lack the tags named with a protein.

Target: T1, GST-Pse1 (S. cerevisiae) (UniProt P32337)
T1 sequence: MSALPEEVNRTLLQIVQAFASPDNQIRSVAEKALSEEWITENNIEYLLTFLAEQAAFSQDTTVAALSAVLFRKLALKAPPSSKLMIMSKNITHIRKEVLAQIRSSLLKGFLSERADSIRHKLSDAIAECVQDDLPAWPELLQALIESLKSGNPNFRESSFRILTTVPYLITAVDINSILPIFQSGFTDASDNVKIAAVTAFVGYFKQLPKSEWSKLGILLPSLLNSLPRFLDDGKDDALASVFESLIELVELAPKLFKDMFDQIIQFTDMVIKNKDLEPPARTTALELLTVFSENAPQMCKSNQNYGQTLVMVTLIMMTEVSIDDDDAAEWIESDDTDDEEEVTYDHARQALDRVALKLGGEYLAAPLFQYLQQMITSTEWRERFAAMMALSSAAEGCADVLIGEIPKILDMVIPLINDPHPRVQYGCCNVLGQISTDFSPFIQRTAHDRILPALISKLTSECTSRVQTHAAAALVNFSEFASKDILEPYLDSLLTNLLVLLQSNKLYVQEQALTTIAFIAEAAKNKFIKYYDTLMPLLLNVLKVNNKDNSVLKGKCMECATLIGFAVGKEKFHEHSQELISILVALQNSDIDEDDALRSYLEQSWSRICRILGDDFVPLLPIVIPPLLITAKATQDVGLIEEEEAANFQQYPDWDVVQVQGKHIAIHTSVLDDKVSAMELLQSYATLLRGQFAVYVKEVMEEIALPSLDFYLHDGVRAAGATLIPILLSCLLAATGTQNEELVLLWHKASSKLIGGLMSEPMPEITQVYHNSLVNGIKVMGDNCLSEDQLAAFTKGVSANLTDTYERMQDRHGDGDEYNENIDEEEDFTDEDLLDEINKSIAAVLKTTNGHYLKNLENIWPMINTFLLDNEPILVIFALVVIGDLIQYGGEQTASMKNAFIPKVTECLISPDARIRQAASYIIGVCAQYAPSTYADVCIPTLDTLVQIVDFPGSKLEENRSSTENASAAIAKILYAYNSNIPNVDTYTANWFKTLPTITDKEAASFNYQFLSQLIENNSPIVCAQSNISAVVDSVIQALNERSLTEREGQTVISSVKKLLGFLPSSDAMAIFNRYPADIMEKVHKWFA
Experiment: pull-down; GST-importins immobilised on Glutathione Sepharose, incubated with purified 3.4 µM Tsr2 or 4 µM Tsr2:eS26 in PBSKMT with competing E. coli lysates for 1 hr at 4°C; Coomassie Blue staining or Western; both purified

binding: no binding (tested: 3.4 µM Tsr2)
B1: Tsr2, purified recombinant (protein, UniProt Q06672 1-205)
chain: MSTQYIDETAFVQAEQGKTNLMFSDEKQQARFELGVSMVIYKWDALDVAVENSWGGPDSAEKRDWITGIVVDLFKNEKVVDAALIEETLLYAMIDEFETNVEDDSALPIAVEVINIYNDCFNLNYNKVEKLYLEWQEKQRTKKSKRVVHIEGDDDEDDEDVEDYDDEDEDEEMDEVVPDLVSSKPEPIVDEDGFELVQPKGRRKH
